Data taken from patent publication US20130090371A1, “METHODS AND COMPOSITIONS FOR INHIBITION OF BETA2-ADRENERGIC RECEPTOR DEGRADATION” (PRESIDENT AND FELLOWS OF HARVARD COLLEGE, priority 2010, published 2013).
For at least one compound, name, drawing or mass did not settle the structure.

Tested on: cellular cholesterol
Assay: Cellular cholesterol measurement in 293.β2AR* cells
Assay type: cell-based, human
Conditions: 50 μM ALN or 100 μg/mL pravastatin for 1 d; serum containing medium
Experimental: Error bars represented the standard deviations of replicates.
Cellular cholesterol measurement. 1×10^6 cells were cultured in each well of 6-well plates in DMEM containing 10% FBS for 3 d until fully confluent. Then drug treatments were performed in either DMEM containing 10% FBS or Opti-MEM without serum in duplicates. Cells were transferred to microcentrifuge tubes, washed twice with ice-cold PBS. Total lipids were extracted by resuspending and lysing cells in 300 μL of Chloroform: Isopropanol: Triton X-100 (7:11:0.1). The organic phase was collected after centrifugation at 12,000 rpm for 10 min and then evaporated at 50° C. for 3-4 h. Lipids were resuspend in 200 μL of Cholesterol Reaction buffer included in a commercial cholesterol measurement kit (Invitrogen) by votexing. Cholesterol was measured by the cholesterol oxidase method according to the manufacturer's directions. 2 or 4 measurements were taken for each replicate sample.

SMILES: CC[C@H](C)C(=O)O[C@H]1C[C@H](O)C=C2C=C[C@H](C)[C@H](CC[C@@H](O)C[C@@H](O)CC(=O)O)[C@H]21 [pravastatin]
- effect on cellular cholesterol: neither alendronate nor pravastatin could significantly lower the cellular cholesterol
